Read-outs that look alike come from different tables or passages of the source. The exact form of at least one protein or probe is not confirmed. The comparison behind a weaker result is the experiment's own reference, which may not be listed here.
Molecular target: ZnF3 PARP1 (Homo sapiens) (UniProt P09874)
Test: fluorescence polarization

Protein sequences, listed by entry. Tags and fused reporters are not part of them. Residues count along the entry.
UniProt P09874, 225-359: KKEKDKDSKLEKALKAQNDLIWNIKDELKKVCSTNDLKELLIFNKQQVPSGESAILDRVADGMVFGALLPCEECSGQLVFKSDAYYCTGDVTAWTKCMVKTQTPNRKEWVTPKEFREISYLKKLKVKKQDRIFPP

Sequence: GCCTACCGGTTCGAATGGCAGC (double strand) [DSB DNA (5-FAM labelled)]
- binding result: binds more weakly

Sequence: GCTGGCTTCGTAAGAAGCCAGCTCGCGGTCAGCTTGCTGACCGCG [SSB DNA dumbbell 45-mer (5-FAM labelled)]
- binding result (5'-phosphate (printed for unlabelled oligo)): binds more weakly
